PubChem BioAssay AID1508588 | Peter MacCallum Cancer Centre – 2020

- Aim: 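Genome-wide search for knock-downs that heighten vemurafenib action in melanoma cells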 (primary screen)
- Cell system: human WM266.4 melanoma cells (BRAF V600 mutant)
- Reagent: siRNA pool against human genes, 40 nM
- Time to read-out: 96 h from transfection to read-out
- Conditions: vemurafenib 300 nM (about IC25), added 48 h after transfection, for 48 h; comparison arm got DMSO vehicle only
- Detection: 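Ratios to non-targeting siRNA for cell gain, counted as DAPI nuclei after minus before drug and averaged over two replicates, and for absorbance-read medium lactate per cell; both binned into fold-change classes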
- Scale: cell gain with vemurafenib: higher = more cell gain than with non-targeting siRNA; lactate per cell with vemurafenib: higher = more lactate made per cell
- Rule for the call: 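a knock-down counts as enhancing when its fold-change classes with vehicle and with vemurafenib, taken together, show a stronger drug effect on cell gain or lactate per cell; exact class pairs not stated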
- Calls: active = enhances vemurafenib effect; inactive = no enhancement seen
Here is an unselected part of about 18,000 deposited reagents. Over the whole deposit, 790 (4.4%) were called active. 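Calls rest on a combination of fold-change classes in drug and vehicle arms, not all shown here.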 Reagents against one gene are numbered here. No sequences are given here.

| Target gene | pool no. | cell gain with vemurafenib | lactate per cell with vemurafenib | call |
| --- | --- | --- | --- | --- |
| FAM131B (family with sequence similarity 131 member B) | 1 | 0.38 | 0.92 | inactive |
| REV3L (REV3 like, DNA directed polymerase zeta catalytic subunit) | 1 | 0.59 | 1.04 | inactive |
| HHIPL2 (HHIP like 2) | 1 | 1.26 | 0.68 | inactive |
| GPR42 (G protein-coupled receptor 42) | 1 | 0.55 | 1.86 | inactive |
| LRRC8D (leucine rich repeat containing 8 VRAC subunit D) | 1 | 0.8 | 0.4 | active |
| REL (REL proto-oncogene, NF-kB subunit) | 1 | 0.44 | 0.46 | active |
| ATP6AP1L (ATPase H+ transporting accessory protein 1 like (pseudogene)) | 1 | 0.01 | 0.4 | active |
| LRRN1 (leucine rich repeat neuronal 1) | 1 | 0.42 | 0.5 | inactive |
| ARK2N (arkadia (RNF111) N-terminal like PKA signaling regulator 2N) | 1 | 0.35 | 0.66 | inactive |
| MED23 (mediator complex subunit 23) | 1 | 0.55 | 0.88 | inactive |
| NGEF (neuronal guanine nucleotide exchange factor) | 1 | 0.56 | 1.44 | inactive |
| C1orf53 (chromosome 1 open reading frame 53) | 1 | 0.67 | 1.46 | inactive |
| ENY2 (ENY2 transcription and export complex 2 subunit) | 1 | 0.72 | 1.1 | inactive |
| QRICH2 (glutamine rich 2) | 1 | 0.47 | 1.23 | inactive |
| OR6C2 (olfactory receptor family 6 subfamily C member 2) | 1 | 0.35 | 1.14 | inactive |
| MIDN (midnolin) | 1 | 1.19 | 0.4 | active |
| EIF3D (eukaryotic translation initiation factor 3 subunit D) | 1 | 0.37 | 0.82 | inactive |
| HSD3B2 | 1 | 1.1 | 0.6 | inactive |
| METTL21A (methyltransferase 21A, HSPA lysine) | 1 | 0.49 | 1.36 | inactive |
| CDK5RAP1 (CDK5RAP1 mitochondrial tRNA methylthiotransferase) | 1 | 0.4 | 0.74 | inactive |
| CTDSP2 (CTD small phosphatase 2) | 1 | 0.76 | 0.86 | inactive |
| EPSTI1 (epithelial stromal interaction 1) | 1 | -0.15 | 0.47 | active |
| CCNK (cyclin K) | 1 | -0.04 | 3.66 | inactive |
| PLEKHN1 (pleckstrin homology domain containing N1) | 1 | 0.7 | 0.54 | inactive |
| ARPC1B (actin related protein 2/3 complex subunit 1B) | 1 | 0.6 | 1.23 | inactive |
| SFTPA1 (surfactant protein A1) | 1 | 0.13 | 1.61 | inactive |
| SFTPA1 (surfactant protein A1) | 2 | 0.2 | 0.84 | inactive |
| TMSB10 (thymosin beta 10) | 1 | 1.08 | 0.78 | inactive |
| ALOX5 (arachidonate 5-lipoxygenase) | 1 | 0.67 | 0.57 | inactive |
| LOC652436 (retired record) | 1 | 0.75 | 0.79 | inactive |
| A1BG (alpha-1-B glycoprotein) | 1 | 0.46 | 0.45 | active |
| KRTAP20-2 (keratin associated protein 20-2) | 1 | 0.51 | 1.45 | inactive |
| RAB26 (RAB26, member RAS oncogene family) | 1 | 0.28 | 0.8 | inactive |
| RTN4 (reticulon 4) | 1 | 0.55 | 1.04 | inactive |
| LINC01565 (long independently transcribed non-coding RNA 1565) | 1 | 0.47 | 0.82 | inactive |
| HOXB3 (homeobox B3) | 1 | 0.68 | 1.44 | inactive |
| CHURC1 (churchill domain containing 1) | 1 | 0.86 | 0.48 | active |
| APOE (apolipoprotein E) | 1 | 0.39 | 1.31 | inactive |
| PRKAA1 (protein kinase AMP-activated catalytic subunit alpha 1) | 1 | 0.61 | 0.88 | inactive |
| WDHD1 (WD repeat and HMG-box DNA binding protein 1) | 1 | 0.12 | 0.83 | inactive |
| HKDC1 (hexokinase domain containing 1) | 1 | 0.31 | 0.98 | inactive |
| CELA2B (chymotrypsin like elastase 2B) | 1 | 0.22 | 1.37 | inactive |
| FRYL (FRY like transcription coactivator) | 1 | 1.11 | 1.08 | inactive |
| TUFT1 (tuftelin 1) | 1 | -0.04 | 0.69 | inactive |
| CLMB (calcimembrin) | 1 | 0.63 | 0.67 | inactive |
| ZBTB22 (zinc finger and BTB domain containing 22) | 1 | 1 | 0.53 | inactive |
| MLST8 (MTOR associated protein MLST8) | 1 | 0.43 | 0.72 | inactive |
| VASH1 (vasohibin 1) | 1 | 0.26 | 1.71 | inactive |
| PRP4K (pre-mRNA processing factor kinase PRP4K) | 1 | 0.17 | 0.82 | inactive |
| NOM1 (nucleolar protein with MIF4G domain 1) | 1 | 0.47 | 1.57 | inactive |
| DGKI (diacylglycerol kinase iota) | 1 | 1.18 | 0.77 | inactive |
| CNKSR2 (connector enhancer of kinase suppressor of Ras 2) | 1 | 0.86 | 0.5 | inactive |
| PSMC3 (proteasome 26S subunit, ATPase 3) | 1 | -0.18 | 3.47 | inactive |
| SPIN2A (spindlin family member 2A) | 1 | 0.39 | 0.43 | inactive |
| GSKIP (GSK3B interacting protein) | 1 | -0.08 | 1.91 | inactive |
| KCNT1 (potassium sodium-activated channel subfamily T member 1) | 1 | 0.6 | 0.67 | inactive |
| KLF14 (KLF transcription factor 14) | 1 | 0.69 | 0.34 | inactive |
| CCL3L3 (C-C motif chemokine ligand 3 like 3) | 1 | 0.7 | 0.28 | inactive |
| COLEC10 (collectin subfamily member 10) | 1 | 0.74 | 0.22 | active |
| CACNG6 (calcium voltage-gated channel auxiliary subunit gamma 6) | 1 | 0.9 | 0.6 | inactive |
| SPRY2 (sprouty RTK signaling antagonist 2) | 1 | 0.95 | 0.54 | inactive |
| GADL1 (GAD like acidic amino acid decarboxylase 1) | 1 | 0.84 | 0.54 | inactive |
| EXOSC4 (exosome component 4) | 1 | 0.2 | 2.24 | inactive |
| TF (transferrin) | 1 | 0.23 | 0.82 | inactive |
| BECN1 (beclin 1) | 1 | 0.68 | 1.15 | inactive |
| CFAP53 (cilia and flagella associated protein 53) | 1 | 0.99 | 1.52 | inactive |
| ERI3 (ERI1 exoribonuclease family member 3) | 1 | 0.86 | 0.94 | inactive |

12 entries from above, arranged by “cell gain with vemurafenib”, lowest first:
| Target gene | pool no. | cell gain with vemurafenib | lactate per cell with vemurafenib | call |
| --- | --- | --- | --- | --- |
| SFTPA1 (surfactant protein A1) | 1 | 0.13 | 1.61 | inactive |
| SFTPA1 (surfactant protein A1) | 2 | 0.2 | 0.84 | inactive |
| RAB26 (RAB26, member RAS oncogene family) | 1 | 0.28 | 0.8 | inactive |
| A1BG (alpha-1-B glycoprotein) | 1 | 0.46 | 0.45 | active |
| LINC01565 (long independently transcribed non-coding RNA 1565) | 1 | 0.47 | 0.82 | inactive |
| KRTAP20-2 (keratin associated protein 20-2) | 1 | 0.51 | 1.45 | inactive |
| RTN4 (reticulon 4) | 1 | 0.55 | 1.04 | inactive |
| ALOX5 (arachidonate 5-lipoxygenase) | 1 | 0.67 | 0.57 | inactive |
| HOXB3 (homeobox B3) | 1 | 0.68 | 1.44 | inactive |
| LOC652436 (retired record) | 1 | 0.75 | 0.79 | inactive |
| CHURC1 (churchill domain containing 1) | 1 | 0.86 | 0.48 | active |
| TMSB10 (thymosin beta 10) | 1 | 1.08 | 0.78 | inactive |

More records follow.
| Target gene | pool no. | cell gain with vemurafenib | lactate per cell with vemurafenib | call |
| --- | --- | --- | --- | --- |
| LIX1 (limb and CNS expressed 1) | 1 | 0.55 | 0.44 | inactive |
| CDH1 (cadherin 1) | 1 | 0.85 | 0.79 | inactive |
| COL18A1 (collagen type XVIII alpha 1 chain) | 1 | 0.53 | 0.5 | inactive |
| PRSS53 (serine protease 53) | 1 | 0.47 | 1.2 | inactive |
| CHD6 (chromodomain helicase DNA binding protein 6) | 1 | 0.96 | 1.09 | inactive |
| CAGE1 (cancer antigen 1) | 1 | 0.54 | 0.84 | inactive |
| TEX12 (testis expressed 12) | 1 | 0.72 | 0.64 | inactive |
| CERS2 (ceramide synthase 2) | 1 | 0.57 | 0.93 | inactive |
| CCDC7 (coiled-coil domain containing 7) | 1 | 0.78 | 1.53 | inactive |
| CCDC7 (coiled-coil domain containing 7) | 2 | 0.52 | 1.34 | inactive |
| RGS1 (regulator of G protein signaling 1) | 1 | 0.02 | 0.5 | inactive |
| PSMC5 (proteasome 26S subunit, ATPase 5) | 1 | -0.03 | 3.37 | inactive |
| DLGAP2 (DLG associated protein 2) | 1 | 0.81 | 0.79 | inactive |
| ALDH3B2 (aldehyde dehydrogenase 3 family member B2) | 1 | 0.87 | 0.76 | inactive |
| AFAP1L1 (actin filament associated protein 1 like 1) | 1 | 0.83 | 0.78 | inactive |
| LENG8 (leukocyte receptor cluster member 8) | 1 | 0.54 | 1.35 | inactive |
| CA6 (carbonic anhydrase 6) | 1 | 0.55 | 1.03 | inactive |
| SEMA4D (semaphorin 4D) | 1 | 0.8 | 0.78 | inactive |
| SEMA4D (semaphorin 4D) | 2 | 0.89 | 0.89 | inactive |
| PEG10 (paternally expressed 10) | 1 | 0.75 | 1.42 | inactive |
| HMGB4 (high mobility group box 4) | 1 | 0.74 | 0.67 | inactive |
| DUSP15 (dual specificity phosphatase 15) | 1 | 0.5 | 1.59 | inactive |
| FOXD4L1 (forkhead box D4 like 1) | 1 | 1.05 | 0.52 | inactive |
| SPRR2F (small proline rich protein 2F) | 1 | 0.44 | 1.11 | inactive |
| DTNBP1 (dystrobrevin binding protein 1) | 1 | 0.27 | 0.82 | inactive |
| RELCH | 1 | 0.07 | 0.55 | inactive |
| NADK (NAD kinase) | 1 | 0.35 | 0.62 | inactive |
| TBC1D26 (TBC1 domain family member 26) | 1 | 0.47 | 1.36 | inactive |
| CCDC22 (CCC complex scaffolding subunit CCDC22) | 1 | 0.27 | 1.1 | inactive |
| RGMB (repulsive guidance molecule BMP co-receptor b) | 1 | 0.54 | 0.7 | active |
| GATD3 (glutamine amidotransferase class 1 domain containing 3) | 1 | 0.98 | 0.5 | inactive |
| KRT13 (keratin 13) | 1 | 0.6 | 0.91 | inactive |
| GJA10 (gap junction protein alpha 10) | 1 | 0.76 | 0.76 | inactive |
| CD8B (CD8 subunit beta) | 1 | 0.53 | 1.07 | inactive |
| TSHB (thyroid stimulating hormone subunit beta) | 1 | 0.75 | 0.72 | inactive |
| EEF2K (eukaryotic elongation factor 2 kinase) | 1 | -0.08 | 2.98 | inactive |
| CENPW (centromere protein W) | 1 | 0.41 | 0.62 | inactive |
| CLEC14A (C-type lectin domain containing 14A) | 1 | 0.57 | 0.49 | active |
| VXN (vexin) | 1 | 0.31 | 1.02 | inactive |
| PCDHGA6 (protocadherin gamma subfamily A, 6) | 1 | 0.59 | 0.43 | inactive |
